Data from publication PMC9758435.
Results are given in words; binding and its absence hold for the method and conditions named. Binding seen in cells or lysates may run through a third protein. Some entries that bind do so weakly or less than the wild type. Where a sequence is shown, tags or fusion partners need not be part of it.

Target: T1, FLAG-RECQL4 (UniProt O94761)
T1 sequence: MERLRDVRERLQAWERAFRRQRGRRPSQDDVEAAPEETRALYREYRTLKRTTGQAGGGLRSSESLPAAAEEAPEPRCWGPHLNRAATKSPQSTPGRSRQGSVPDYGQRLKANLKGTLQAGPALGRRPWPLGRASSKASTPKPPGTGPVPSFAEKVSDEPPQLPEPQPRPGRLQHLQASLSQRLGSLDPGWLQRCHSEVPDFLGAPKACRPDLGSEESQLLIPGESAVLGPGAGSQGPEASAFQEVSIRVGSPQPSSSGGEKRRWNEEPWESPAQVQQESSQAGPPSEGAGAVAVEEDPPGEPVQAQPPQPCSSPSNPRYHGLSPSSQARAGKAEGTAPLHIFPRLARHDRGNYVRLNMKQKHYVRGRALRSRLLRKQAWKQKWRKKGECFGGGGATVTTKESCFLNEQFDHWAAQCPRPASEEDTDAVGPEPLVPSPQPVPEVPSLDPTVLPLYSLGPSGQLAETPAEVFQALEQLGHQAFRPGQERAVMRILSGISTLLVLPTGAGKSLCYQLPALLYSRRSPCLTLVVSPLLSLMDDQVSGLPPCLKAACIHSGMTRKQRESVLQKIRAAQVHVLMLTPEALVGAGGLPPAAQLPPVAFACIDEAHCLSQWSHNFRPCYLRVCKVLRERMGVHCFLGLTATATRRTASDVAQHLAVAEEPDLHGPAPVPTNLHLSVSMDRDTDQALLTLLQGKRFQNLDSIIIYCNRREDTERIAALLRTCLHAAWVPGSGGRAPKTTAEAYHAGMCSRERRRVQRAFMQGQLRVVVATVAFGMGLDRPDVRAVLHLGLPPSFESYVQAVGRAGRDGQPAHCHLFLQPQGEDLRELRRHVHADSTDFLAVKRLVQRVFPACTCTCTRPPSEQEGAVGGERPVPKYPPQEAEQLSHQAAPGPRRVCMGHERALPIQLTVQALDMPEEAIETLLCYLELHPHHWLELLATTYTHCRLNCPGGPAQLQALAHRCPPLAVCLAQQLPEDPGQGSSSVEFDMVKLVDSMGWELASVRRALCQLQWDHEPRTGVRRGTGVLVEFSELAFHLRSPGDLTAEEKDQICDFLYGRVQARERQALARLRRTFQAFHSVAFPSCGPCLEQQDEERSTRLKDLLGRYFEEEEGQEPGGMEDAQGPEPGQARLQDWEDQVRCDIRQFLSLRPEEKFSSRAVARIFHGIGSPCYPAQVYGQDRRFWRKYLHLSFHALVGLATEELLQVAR
Experiment: co-IP; U2OS cells co-transfected with both tagged proteins, mock- or NCS-treated; lysis in 40 mM Tris-HCl pH 7.5, 100 mM NaCl, 0.2% NP-40, sonication, benzonase at 4 °C for 4 h; IP with anti-HA or anti-GFP antibodies or with anti-FLAG-M2-agarose beads; Western blot

B1: HA-CD1 (USP2 N terminus, residues 1 to 160) (domain or fragment, UniProt O75604 1-160)
chain: MSQLSSTLKRYTESARYTDAHYAKSGYGAYTPSSYGANLAASLLEKEKLGFKPVPTSSFLTRPRTYGPSSLLDYDRGRPLLRPDITGGGKRAESQTRGTERPLGSGLSGGSGFPYGVTNNCLSYLPINAYDQGVTLTQKLDSQSDLARDFSSLRTSDSYR
- binding: binds
